Binding data for one substance are collected here from patent EP3222276B1, “PHARMACEUTICAL COMPOSITION FOR TREATING CANCER AND BIOMARKER FOR DRUG SCREENING” (National Defense Medical Center, priority 2014, dated 2016).

Sequences of proteins named here, by UniProt entry; tags and fusion partners are left off. A change or cut given only in a name is not applied to a line headed by its entry.
UniProt P53355: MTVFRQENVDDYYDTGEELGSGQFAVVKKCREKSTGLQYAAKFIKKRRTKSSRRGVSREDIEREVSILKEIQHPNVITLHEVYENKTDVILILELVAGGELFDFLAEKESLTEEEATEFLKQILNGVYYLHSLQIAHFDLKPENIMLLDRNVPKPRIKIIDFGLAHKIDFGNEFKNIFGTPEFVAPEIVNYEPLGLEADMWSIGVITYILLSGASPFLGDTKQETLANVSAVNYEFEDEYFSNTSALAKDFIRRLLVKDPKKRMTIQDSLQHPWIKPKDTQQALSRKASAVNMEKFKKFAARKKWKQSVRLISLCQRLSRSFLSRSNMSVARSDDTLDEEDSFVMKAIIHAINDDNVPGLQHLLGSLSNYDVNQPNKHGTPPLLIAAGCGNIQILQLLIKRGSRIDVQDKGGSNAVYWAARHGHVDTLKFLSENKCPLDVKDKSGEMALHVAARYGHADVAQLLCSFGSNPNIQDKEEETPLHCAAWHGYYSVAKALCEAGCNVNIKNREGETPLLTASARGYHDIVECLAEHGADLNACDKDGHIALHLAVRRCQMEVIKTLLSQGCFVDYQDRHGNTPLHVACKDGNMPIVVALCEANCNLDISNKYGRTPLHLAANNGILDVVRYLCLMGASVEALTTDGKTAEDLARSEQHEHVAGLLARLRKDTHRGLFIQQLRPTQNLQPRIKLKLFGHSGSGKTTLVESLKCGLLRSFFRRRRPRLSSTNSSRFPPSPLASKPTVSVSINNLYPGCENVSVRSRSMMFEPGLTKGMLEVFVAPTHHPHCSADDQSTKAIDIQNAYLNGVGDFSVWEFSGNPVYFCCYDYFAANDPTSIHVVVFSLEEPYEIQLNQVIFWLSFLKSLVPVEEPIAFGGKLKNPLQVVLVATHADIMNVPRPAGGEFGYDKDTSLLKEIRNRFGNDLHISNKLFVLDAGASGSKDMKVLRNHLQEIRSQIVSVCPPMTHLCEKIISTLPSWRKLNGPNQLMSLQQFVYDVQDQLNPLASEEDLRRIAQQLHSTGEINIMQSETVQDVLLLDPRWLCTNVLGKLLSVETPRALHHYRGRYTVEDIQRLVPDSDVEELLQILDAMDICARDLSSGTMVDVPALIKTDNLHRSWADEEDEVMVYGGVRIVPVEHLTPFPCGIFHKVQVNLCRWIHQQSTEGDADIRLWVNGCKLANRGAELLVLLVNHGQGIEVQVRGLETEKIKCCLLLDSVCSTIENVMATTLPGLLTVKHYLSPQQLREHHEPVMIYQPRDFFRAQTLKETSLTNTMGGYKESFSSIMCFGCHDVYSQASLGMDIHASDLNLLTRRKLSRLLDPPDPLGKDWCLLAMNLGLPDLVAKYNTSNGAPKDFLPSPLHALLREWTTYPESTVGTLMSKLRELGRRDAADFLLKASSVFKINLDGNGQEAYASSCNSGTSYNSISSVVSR

This assay deals with DAPK protein (endogenous, ACHN cells) (Homo sapiens (Human)) (UniProt P53355). The assay can be described thus: co-immunoprecipitation of endogenous proteins from ACHN cells, immunoblotting.

Results are given in words; binding and its absence hold for the method and conditions named. Binding seen in cells or lysates may run through a third protein. Some binding calls cover weakened binding; strength is not graded here.

In the case of “c-Raf protein (endogenous, ACHN cells) (from UniProt P04049 1-648) (enzyme)”, the binding result is on record as “binds”.
